The supplement of paper PMC6411743
± gives the standard deviation of the averaged measurements. The entries are a selection whose mix differs from that of the whole data set.

The chains behind the UniProt entries cited, without tags or fusion partners. Where a name states a change or a piece, a line headed by the entry shows the natural chain unless it says otherwise.
UniProt Q8IVS2: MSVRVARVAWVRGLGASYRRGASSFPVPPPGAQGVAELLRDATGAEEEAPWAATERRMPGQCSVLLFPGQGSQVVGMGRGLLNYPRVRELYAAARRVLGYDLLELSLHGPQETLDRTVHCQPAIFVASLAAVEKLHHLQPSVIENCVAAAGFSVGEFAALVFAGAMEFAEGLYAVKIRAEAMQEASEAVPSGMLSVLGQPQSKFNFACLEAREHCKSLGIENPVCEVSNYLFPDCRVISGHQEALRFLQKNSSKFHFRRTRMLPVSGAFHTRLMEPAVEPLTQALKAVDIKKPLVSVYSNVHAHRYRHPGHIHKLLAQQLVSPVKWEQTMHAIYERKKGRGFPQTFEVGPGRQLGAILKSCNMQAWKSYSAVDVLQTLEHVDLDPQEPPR
UniProt P12235: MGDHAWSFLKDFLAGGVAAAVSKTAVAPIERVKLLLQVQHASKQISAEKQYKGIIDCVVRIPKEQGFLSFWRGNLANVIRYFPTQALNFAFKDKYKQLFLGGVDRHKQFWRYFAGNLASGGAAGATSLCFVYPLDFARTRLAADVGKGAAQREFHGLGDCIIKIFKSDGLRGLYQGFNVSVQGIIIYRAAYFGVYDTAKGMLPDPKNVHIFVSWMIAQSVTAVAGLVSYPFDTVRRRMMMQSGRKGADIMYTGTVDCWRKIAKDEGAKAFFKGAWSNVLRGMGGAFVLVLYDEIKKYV
UniProt P14317: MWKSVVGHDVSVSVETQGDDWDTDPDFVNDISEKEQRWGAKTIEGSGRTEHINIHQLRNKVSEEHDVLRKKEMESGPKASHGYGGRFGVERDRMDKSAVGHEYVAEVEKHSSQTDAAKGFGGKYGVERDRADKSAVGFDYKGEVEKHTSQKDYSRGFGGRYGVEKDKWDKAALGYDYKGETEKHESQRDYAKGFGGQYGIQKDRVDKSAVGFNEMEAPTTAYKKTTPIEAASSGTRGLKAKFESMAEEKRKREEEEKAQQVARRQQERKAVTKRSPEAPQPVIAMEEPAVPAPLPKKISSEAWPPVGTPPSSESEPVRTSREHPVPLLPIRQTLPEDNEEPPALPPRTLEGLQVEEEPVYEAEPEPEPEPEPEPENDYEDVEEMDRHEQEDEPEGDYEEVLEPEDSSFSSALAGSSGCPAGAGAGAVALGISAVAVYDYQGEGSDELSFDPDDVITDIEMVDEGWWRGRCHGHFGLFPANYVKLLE
UniProt P04181: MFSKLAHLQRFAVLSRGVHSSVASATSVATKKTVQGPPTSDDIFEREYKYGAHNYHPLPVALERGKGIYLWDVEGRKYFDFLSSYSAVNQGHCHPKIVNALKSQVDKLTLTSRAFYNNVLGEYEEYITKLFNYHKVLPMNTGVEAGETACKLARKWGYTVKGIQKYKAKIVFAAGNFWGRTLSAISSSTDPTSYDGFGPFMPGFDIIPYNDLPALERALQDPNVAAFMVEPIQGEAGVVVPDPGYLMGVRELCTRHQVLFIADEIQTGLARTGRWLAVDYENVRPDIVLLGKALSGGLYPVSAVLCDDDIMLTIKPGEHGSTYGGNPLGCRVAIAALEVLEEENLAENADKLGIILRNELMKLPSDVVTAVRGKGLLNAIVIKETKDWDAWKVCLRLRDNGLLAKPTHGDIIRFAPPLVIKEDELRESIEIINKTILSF
UniProt P04075: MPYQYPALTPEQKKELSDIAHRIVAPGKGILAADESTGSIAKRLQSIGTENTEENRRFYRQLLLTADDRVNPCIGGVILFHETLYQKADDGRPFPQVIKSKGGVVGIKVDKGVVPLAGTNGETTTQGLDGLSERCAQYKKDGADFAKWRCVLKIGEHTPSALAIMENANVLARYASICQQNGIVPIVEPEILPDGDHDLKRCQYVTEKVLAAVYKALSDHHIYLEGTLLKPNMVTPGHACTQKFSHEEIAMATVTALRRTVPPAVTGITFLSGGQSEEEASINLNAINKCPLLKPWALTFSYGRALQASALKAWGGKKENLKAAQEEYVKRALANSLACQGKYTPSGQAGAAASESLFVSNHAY
UniProt P10644, whole entry: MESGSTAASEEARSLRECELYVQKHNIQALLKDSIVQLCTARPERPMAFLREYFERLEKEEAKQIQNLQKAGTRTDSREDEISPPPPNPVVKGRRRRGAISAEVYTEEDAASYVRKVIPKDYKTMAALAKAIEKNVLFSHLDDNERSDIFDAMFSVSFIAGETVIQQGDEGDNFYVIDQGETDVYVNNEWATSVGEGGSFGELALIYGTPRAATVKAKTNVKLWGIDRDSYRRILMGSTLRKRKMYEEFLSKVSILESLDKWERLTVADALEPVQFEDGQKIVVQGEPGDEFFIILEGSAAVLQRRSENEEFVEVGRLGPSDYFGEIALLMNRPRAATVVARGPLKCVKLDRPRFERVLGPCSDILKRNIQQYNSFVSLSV
UniProt P10114: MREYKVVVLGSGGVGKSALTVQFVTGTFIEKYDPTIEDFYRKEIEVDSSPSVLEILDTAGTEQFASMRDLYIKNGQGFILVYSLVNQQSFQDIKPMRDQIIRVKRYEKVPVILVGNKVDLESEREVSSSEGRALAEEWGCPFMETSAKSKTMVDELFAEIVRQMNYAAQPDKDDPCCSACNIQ
UniProt P05161, whole entry: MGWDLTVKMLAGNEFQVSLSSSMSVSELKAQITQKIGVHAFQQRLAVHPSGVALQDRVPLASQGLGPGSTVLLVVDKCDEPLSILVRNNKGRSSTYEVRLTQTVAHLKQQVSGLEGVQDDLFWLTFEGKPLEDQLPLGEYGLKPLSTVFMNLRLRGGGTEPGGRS
UniProt P07311: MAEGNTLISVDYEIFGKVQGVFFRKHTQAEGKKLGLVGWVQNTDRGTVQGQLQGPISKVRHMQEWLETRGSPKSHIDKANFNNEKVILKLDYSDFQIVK
UniProt P01137, whole entry: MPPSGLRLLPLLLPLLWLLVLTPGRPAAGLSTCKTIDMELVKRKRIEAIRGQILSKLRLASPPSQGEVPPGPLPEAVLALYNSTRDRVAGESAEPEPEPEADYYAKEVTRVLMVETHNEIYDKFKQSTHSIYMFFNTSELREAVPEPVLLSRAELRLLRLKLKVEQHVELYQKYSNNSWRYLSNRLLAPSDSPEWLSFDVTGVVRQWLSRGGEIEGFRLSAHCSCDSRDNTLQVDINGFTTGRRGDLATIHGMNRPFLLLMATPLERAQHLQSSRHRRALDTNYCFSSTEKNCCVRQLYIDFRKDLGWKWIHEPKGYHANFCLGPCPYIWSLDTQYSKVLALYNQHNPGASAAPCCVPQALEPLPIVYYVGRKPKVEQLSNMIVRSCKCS
UniProt P13984, whole entry: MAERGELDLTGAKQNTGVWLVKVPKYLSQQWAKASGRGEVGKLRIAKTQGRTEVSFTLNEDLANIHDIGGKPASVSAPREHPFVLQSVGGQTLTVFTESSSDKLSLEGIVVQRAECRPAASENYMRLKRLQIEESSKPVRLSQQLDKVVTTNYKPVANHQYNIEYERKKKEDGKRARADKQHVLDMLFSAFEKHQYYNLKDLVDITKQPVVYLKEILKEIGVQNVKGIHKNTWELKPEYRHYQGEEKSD
UniProt P07814: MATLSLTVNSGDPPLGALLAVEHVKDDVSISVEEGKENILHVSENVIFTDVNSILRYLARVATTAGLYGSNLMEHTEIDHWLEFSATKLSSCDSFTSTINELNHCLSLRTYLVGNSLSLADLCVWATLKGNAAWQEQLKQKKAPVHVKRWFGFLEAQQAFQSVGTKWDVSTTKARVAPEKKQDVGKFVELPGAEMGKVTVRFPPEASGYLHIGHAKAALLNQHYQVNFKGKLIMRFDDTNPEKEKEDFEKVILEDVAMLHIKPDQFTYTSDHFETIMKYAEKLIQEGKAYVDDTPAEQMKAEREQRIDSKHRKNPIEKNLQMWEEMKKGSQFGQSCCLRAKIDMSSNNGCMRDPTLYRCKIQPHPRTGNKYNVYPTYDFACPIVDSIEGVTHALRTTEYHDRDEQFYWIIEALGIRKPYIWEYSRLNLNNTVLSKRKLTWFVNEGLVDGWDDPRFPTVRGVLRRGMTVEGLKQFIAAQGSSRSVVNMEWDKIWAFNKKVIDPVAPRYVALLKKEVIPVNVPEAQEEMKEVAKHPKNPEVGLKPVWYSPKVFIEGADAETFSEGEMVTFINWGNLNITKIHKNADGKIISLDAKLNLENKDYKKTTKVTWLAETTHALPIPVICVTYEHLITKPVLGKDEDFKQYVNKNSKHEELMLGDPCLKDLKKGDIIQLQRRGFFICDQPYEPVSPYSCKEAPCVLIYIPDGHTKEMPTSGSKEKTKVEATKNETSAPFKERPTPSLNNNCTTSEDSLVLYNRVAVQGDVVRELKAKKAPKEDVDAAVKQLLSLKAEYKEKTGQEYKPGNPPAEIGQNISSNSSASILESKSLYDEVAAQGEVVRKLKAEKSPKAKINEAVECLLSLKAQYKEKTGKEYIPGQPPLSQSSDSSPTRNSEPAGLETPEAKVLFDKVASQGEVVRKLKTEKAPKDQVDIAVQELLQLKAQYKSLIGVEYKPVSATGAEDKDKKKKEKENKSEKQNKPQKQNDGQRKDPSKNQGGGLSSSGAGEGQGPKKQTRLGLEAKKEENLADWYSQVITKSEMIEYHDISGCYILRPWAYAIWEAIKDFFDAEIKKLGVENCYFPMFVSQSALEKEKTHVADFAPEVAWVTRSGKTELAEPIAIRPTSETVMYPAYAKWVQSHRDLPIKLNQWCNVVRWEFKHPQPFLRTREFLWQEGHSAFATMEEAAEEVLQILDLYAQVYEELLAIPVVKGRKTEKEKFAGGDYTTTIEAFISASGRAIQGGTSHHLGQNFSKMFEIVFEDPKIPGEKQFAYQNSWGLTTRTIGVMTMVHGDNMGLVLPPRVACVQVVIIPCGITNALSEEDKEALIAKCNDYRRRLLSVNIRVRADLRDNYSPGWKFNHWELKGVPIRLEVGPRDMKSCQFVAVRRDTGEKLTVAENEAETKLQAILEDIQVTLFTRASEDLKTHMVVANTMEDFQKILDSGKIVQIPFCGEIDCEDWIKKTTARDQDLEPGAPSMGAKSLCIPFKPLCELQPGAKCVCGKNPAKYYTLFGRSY
UniProt P14868: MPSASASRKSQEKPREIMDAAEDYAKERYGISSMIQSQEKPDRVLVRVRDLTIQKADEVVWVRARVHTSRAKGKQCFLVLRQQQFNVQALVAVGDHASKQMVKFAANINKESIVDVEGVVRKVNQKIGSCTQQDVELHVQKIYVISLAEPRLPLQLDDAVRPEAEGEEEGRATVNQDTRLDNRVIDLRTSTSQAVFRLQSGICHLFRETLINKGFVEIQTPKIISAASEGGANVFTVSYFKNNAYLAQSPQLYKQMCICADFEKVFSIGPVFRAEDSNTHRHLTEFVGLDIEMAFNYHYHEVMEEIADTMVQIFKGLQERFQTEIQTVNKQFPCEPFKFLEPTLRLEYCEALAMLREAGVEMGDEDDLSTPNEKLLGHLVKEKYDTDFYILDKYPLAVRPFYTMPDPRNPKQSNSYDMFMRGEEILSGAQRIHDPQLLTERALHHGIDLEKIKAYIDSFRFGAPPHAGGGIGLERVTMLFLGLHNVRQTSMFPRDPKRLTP
UniProt P07384: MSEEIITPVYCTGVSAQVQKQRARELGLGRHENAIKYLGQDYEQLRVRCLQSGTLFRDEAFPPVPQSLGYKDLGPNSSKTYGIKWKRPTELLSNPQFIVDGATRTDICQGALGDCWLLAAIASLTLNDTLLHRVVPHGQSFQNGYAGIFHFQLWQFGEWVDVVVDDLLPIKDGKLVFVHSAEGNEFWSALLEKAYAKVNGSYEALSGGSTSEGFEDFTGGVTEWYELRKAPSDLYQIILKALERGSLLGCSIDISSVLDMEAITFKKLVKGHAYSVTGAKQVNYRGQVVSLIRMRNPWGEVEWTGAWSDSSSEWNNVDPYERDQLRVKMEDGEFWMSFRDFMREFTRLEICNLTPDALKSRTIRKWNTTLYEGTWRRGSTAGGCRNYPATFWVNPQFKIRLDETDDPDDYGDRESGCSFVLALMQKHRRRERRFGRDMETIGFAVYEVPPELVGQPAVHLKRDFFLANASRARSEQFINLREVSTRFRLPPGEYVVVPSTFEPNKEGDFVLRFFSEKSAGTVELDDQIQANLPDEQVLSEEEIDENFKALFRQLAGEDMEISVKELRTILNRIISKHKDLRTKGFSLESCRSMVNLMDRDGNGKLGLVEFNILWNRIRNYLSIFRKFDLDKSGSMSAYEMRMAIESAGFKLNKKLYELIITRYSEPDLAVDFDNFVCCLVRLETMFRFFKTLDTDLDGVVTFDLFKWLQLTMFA
UniProt P07339: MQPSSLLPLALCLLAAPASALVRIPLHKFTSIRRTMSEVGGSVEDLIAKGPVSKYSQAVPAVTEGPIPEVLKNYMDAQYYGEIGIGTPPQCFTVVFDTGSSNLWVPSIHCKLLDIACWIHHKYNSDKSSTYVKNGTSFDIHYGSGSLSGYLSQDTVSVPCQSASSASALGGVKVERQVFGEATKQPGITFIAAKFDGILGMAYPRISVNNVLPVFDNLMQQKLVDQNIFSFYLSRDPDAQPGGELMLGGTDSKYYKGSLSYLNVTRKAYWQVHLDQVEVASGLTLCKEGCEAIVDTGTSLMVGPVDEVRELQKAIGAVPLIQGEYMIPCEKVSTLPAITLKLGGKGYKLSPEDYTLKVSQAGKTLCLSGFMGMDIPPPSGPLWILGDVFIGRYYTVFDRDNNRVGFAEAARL

Compound: Nc1ncnc2c1ncn2[C@@H]1O[C@H](COP(=O)(O)OP(=O)(O)OP(=O)(O)O)[C@@H](O)[C@H]1O [adenosine triphosphate]
Experiment: NP40-soluble protein abundance relative to vehicle (solubility fold change) (ratio); higher = more soluble protein in presence of ATP
Conditions: concentration: 6mM
How it was run: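 In three independent experiments, Jurkat crude lysate made by Dounce homogenisation was treated for 10 min at room temperature and then 3 min at 37 °C with eight concentrations ranging from 0.1 to 10 mM. It was then solubilised with 0.8% NP40 plus benzonase for 60 min at 4 °C and ultracentrifuged. The supernatant was TMT-labelled for LC-MS/MS, and each value is the fold change against the detergent-processed vehicle for the same replicate, using vsn-normalised intensities.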

Target	NP40-soluble protein abundance
P00395 and related entries (UniProt Q8IVS2)	0.837 ± 0.13
SLC25A4 (UniProt P12235)	0.93 ± 0.076
HCLS1 (UniProt P14317)	0.989 ± 0.014
OAT (UniProt P04181)	0.876 ± 0.027
ZBTB48 (UniProt P10074)	0.987 ± 0.012
UniProt O95980	0.994 ± 0.031
UniProt P04075 and related entries	1.02 ± 0.043
UniProt P12931 and related entries	0.938 ± 0.11
ADA (UniProt P00813)	0.9 ± 0.2

Same assay, conditions: concentration: 8mM

Target	NP40-soluble protein abundance
SRF (UniProt P11831)	0.962 ± 0.073
UniProt P16298 and related entries	0.915 ± 0.059
TOMM40 (UniProt O96008)	0.968 ± 0.036
PRKAR1A (UniProt P10644)	0.991 ± 0.039
RAP2A (UniProt P10114)	1.03 ± 0.26
UniProt P10636-6|P10636-7	0.8917 ± 0.0047
RPLP2 (UniProt P05387)	0.828 ± 0.042
ISG15 (UniProt P05161)	1 ± 0.064
CRYZL1 (UniProt O95825)	1.06 ± 0.056
UniProt P16083 and related entries	0.97 ± 0.016
ACYP1 (UniProt P07311)	0.873 ± 0.02
UniProt P14209 and related entries	0.843 ± 0.12
UniProt P14324-2	0.904 ± 0.059
TGFB1 (UniProt P01137)	0.9079 ± 0.0057
GTF2F2 (UniProt P13984)	0.961 ± 0.035
RPS2 (UniProt P15880)	0.718 ± 0.1
P0DN79 and related entries (UniProt P35520+P0DN79)	0.932 ± 0.055
LCP1 (UniProt P13796)	0.981 ± 0.077
UniProt P09564	1.02 ± 0.019

Target	NP40-soluble protein abundance
EPRS (UniProt P07814)	0.997 ± 0.08
CAT (UniProt P04040)	0.97 ± 0.028
UniProt P06748 and related entries	1.084 ± 0.0087
DARS (UniProt P14868)	1.01 ± 0.056
CAPN1 (UniProt P07384)	1.04 ± 0.08
ACAA1 (UniProt P09110)	0.941 ± 0.011
UniProt P13807 and related entries	0.844 ± 0.14
CTSD (UniProt P07339)	0.945 ± 0.02
PLEK (UniProt P08567)	1.04 ± 0.075
P00395 and related entries (UniProt Q8IVS2)	0.97 ± 0.07
SLC25A4 (UniProt P12235)	0.945 ± 0.046
HCLS1 (UniProt P14317)	0.9 ± 0.032
OAT (UniProt P04181)	0.896 ± 0.046
ZBTB48 (UniProt P10074)	0.902 ± 0.082
UniProt O95980	0.987 ± 0.098
UniProt P04075 and related entries	0.942 ± 0.043
UniProt P12931 and related entries	0.963 ± 0.029
ADA (UniProt P00813)	0.975 ± 0.11
